Measured values as given in article PMC10837946.
Results are given in words; binding and its absence hold for the method and conditions named. Binding seen in cells or lysates may run through a third protein. Some entries that bind do so weakly or less than the wild type. Tags and fused reporters may be left off the sequences shown.

Sequences of proteins named here, by UniProt entry; tags and fusion partners are left off.
UniProt O95832: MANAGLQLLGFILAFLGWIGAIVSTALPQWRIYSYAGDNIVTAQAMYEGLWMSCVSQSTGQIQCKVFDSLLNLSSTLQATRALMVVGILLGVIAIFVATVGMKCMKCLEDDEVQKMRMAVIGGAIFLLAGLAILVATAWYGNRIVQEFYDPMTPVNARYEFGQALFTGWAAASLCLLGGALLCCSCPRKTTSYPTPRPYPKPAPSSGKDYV

Target: T1, Ubiquitin-specific protease 40 (HA-USP40) (UniProt Q9NVE5)
T1 sequence: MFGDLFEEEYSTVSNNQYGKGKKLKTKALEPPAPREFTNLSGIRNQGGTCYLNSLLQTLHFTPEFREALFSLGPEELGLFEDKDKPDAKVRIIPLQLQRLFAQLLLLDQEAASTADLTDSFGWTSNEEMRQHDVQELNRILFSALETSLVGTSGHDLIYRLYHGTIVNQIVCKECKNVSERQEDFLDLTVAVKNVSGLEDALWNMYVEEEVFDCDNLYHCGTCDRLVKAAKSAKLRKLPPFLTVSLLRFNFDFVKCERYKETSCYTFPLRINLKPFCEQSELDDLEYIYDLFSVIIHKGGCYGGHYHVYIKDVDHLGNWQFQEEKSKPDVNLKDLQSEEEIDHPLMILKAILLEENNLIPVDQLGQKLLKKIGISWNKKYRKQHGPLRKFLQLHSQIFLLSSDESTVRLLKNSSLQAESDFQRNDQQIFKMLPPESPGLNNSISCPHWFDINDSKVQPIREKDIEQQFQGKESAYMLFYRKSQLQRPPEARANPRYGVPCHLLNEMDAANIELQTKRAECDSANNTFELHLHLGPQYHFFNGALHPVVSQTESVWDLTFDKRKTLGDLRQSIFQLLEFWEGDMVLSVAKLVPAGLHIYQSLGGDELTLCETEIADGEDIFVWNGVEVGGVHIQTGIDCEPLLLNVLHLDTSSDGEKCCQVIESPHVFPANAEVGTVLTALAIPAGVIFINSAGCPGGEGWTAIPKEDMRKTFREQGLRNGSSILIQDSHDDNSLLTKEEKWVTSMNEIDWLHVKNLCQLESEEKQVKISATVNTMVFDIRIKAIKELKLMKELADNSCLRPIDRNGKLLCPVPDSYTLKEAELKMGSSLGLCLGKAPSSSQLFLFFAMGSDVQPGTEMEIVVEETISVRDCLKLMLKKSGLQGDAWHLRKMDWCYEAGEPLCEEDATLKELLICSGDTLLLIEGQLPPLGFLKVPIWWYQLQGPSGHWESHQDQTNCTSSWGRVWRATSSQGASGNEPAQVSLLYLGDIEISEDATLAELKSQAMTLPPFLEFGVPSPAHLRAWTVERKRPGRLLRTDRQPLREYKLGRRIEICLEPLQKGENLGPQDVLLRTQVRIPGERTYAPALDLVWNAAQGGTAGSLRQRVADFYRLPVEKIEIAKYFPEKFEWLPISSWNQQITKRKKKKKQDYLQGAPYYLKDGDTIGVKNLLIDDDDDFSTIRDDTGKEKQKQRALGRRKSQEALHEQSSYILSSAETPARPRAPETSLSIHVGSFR
Assay: co-IP; HA-USP40 and Claudin1 plasmids co-transfected into Huh7 and MHCC97H cells for 48 h; IP lysis buffer; magnetic bead-antibody complex incubated with the lysate at 4 °C overnight; western blotting

binding: binds
Substance: Claudin1 (from UniProt O95832 1-211)
